Source: PubChem BioAssay AID504444 (National Center for Advancing Translational Sciences (NCATS), 2011)
The whole screen tested about 360,000 compounds, of which about 7,500 (2.1%) were called active. The shares of active, inactive and inconclusive entries below differ from those in the screen. Calls come from the whole dose curve; as a rule, active = well fitted inhibition curve with a large enough effect; inconclusive = small, poorly fitted or top-dose-only effect, or effect the other way; inactive = flat fitted curve, though single readings scatter. A potency beside an inconclusive call is a rough fit, not a confirmed value.

Assay: Nrf2 qHTS screen for inhibitors; note: nearly all actives have a fitted effect of over 60% in size
Settings: A549 ARE-Fluc reporter, luciferase luminescence, 18-24 h; series mostly up to 46 µM
Procedure, shortened: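 Reporter: ARE-Fluc in A549. Exposure: 18-24 h, 37 °C, 5% CO2, 5% FBS OPTI-MEM. Readouts: fluorescent cytotoxicity (CellTiter-Fluor), then luminescent Nrf2 signal after BugLite.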
Potency is the fitted concentration of half-maximal effect.

Structure (SMILES) | Potency
COC(=O)c1cc(NC(=O)CC2Oc3ccccc3NC2=O)cc(C(=O)OC)c1 (stereo not given) | inconclusive: 29.1 µM [falling, single point]
COc1ccc(C(=O)/C=C/c2ccc(OCc3ccccc3)cc2)cc1CSCC(=O)O | inconclusive: 18.4 µM [falling, partial curve, poor fit]
O=c1[nH]c(CN2CCN(c3ccccn3)CC2)nc2c(Br)cc(Br)cc12 | active: 23.1 µM
CN(C(=O)c1ccco1)c1nc2c(s1)CCCC2 | inconclusive: 0.731 µM [activator, full curve]
O=C(COc1ccccc1Cl)N1CCN(c2ccc([N+](=O)[O-])c(N3CCCCC3)c2)CC1 | inconclusive: 23.1 µM [falling, partial curve, poor fit]
Cc1oc(-c2ccc(Cl)cc2)cc1C(=O)O | inconclusive: 29.1 µM [activator, single point]
Cc1cccc(NC(=O)c2cc(CN3CCOCC3)on2)c1C | inconclusive: 13 µM [activator, partial curve, poor fit]
O=C1CSC(c2ccccc2F)N1CCN1CCCCC1 (stereo not given) | inconclusive: 0.058 µM [falling, full curve, poor fit]
O=C(Nc1ccc(N2CCCC2)cc1)c1cccc(Cl)c1 | inconclusive: 0.731 µM [activator, full curve]
Cc1ccc(C(=O)Nc2ccc(N3CCN(C)CC3)cc2)cc1 | inconclusive: 11.6 µM [activator, partial curve]
N#Cc1ccc(C(c2nnnn2CCc2ccccc2)N2CCCCCC2)cc1 (stereo not given) | inconclusive: 11.6 µM [falling, partial curve, poor fit]
Cc1ccc(-c2cnc3c(Cl)c(C)nn3c2)cc1 | inconclusive: 0.461 µM [activator, full curve, poor fit]
Cc1cc(NS(=O)(=O)c2ccc(NC(=O)Nc3ccc4c(c3)OCO4)cc2)no1 | inconclusive: 6.51 µM [activator, full curve]
COc1ccc(Nc2nc3ccccc3n2C)cc1 | inconclusive: 16.4 µM [activator, partial curve]
O=C(CN(Cc1ccccc1)C(=O)c1cc2c(s1)CCC2)NCc1cccs1 | inconclusive: 23.1 µM [falling, single point]
O=C(NCc1ccc(Cl)cc1)c1cc2ccc3cccnc3c2[nH]1 | inconclusive: 16.4 µM [activator, partial curve, poor fit]
Cc1cc(=O)oc2cc(OC(C)C(=O)NCC3CCCO3)ccc12 (stereo not given) | inconclusive: 18.4 µM [falling, single point]
CC/C(=N/NC(=O)c1ccc(Br)cc1)c1ccc(OCCN2CCOCC2)cc1 | inconclusive: 3.66 µM [activator, full curve]
Cc1ccc(NC(=O)NCCOCCn2c(=O)oc3ccccc32)c(C)c1 | inconclusive: 7.31 µM [falling, partial curve]
Cc1cc(/C=C(\C#N)C(=O)NCc2ccco2)c(C)n1-c1cccnc1 | inconclusive: 2.06 µM [activator, partial curve]

Some values from the entries so far.
For Potency, COc1ccc(C(=O)/C=C/c2ccc(OCc3ccccc3)cc2)cc1CSCC(=O)O reads inconclusive: 18.4 µM [falling, partial curve, poor fit]
For Potency, Cc1cc(=O)oc2cc(OC(C)C(=O)NCC3CCCO3)ccc12 (stereo not given) reads inconclusive: 18.4 µM [falling, single point]
For Potency, O=C(COc1ccccc1Cl)N1CCN(c2ccc([N+](=O)[O-])c(N3CCCCC3)c2)CC1 reads inconclusive: 23.1 µM [falling, partial curve, poor fit]

Remaining list, next part

Structure (SMILES) | Potency
O=C1CC(N2CCN(c3ccccn3)CC2)C(=O)N1CC(c1ccccc1)c1ccccc1 (stereo not given) | inconclusive: 20.6 µM [falling, single point]
O=S(=O)(c1cccc(-c2nnc(SC(F)F)n2-c2ccccc2)c1)N1CCCCC1 | inconclusive: 20.6 µM [falling, single point]
Cc1nnc(SCC(=O)Nc2ncc3c(n2)CC(c2ccccc2)CC3=O)s1 (stereo not given) | inconclusive: 6.51 µM [falling, partial curve, poor fit]
CCc1ccc2c(c1)C(NC(C)=O)C(=O)N2CCN1CCOCC1 (stereo not given) | inactive
COc1ccc(C(=O)c2cnc3ccc(C)cc3c2S(=O)(=O)c2ccccc2)cc1 | inconclusive: 32.6 µM [falling, single point]
Cc1cccn2c(=O)c(/C=C(\C#N)C(=O)NCc3ccco3)c(N3CCCCC3)nc12 | inconclusive: 23.1 µM [falling, single point]
Cc1ccc(C(=O)N(C)CC(=O)Nc2ccc(Cl)c(C(F)(F)F)c2)cc1S(=O)(=O)N1CCCCC1 | active: 5.8 µM
O=C(Nc1ccccc1Cl)c1ccc2c(=O)n3c(nc2c1)CCC3 | inconclusive: 0.461 µM [activator, full curve, poor fit]
O=C(/C=C/c1ccc2c(c1)OCCCO2)c1ccccc1O | inconclusive: 7.31 µM [activator, partial curve, poor fit]
CC(C)n1nnnc1SCC(=O)N1N=C(c2cccs2)CC1c1cccs1 (stereo not given) | inconclusive: 11.6 µM [activator, partial curve]
O=c1c2c3c(sc2nc2n1N=C(c1cccs1)CS2)CCCC3 | inconclusive: 2.59 µM [activator, full curve, poor fit]
COc1cc(/C=N/O)ccc1OCc1ccc(C(=O)O)cc1 | inconclusive: 0.708 µM [activator, full curve, poor fit]
CCc1ccccc1NC(=O)CC(C)S(=O)(=O)c1ccc2c(c1)NC(=O)CO2 (stereo not given) | inconclusive: 14.6 µM [activator, single point]
Cc1nc(Nc2nc3ccccc3o2)nc2c1CCC2 | inconclusive: 29.1 µM [falling, single point]
CC(C)CC1C(=O)N(Cc2cn(CC3CCCCC3)nn2)CCS(=O)(=O)N1Cc1ccc(-c2cccc(C#N)c2)cc1 (stereo not given) | inconclusive: 9.2 µM [falling, partial curve, poor fit]
COc1ccc(CCNC(=O)c2ccc(Cl)c(S(=O)(=O)N3CCCC3)c2)cc1 | active: 16.4 µM
CN1CCN(c2oc(COc3ccc(-c4ccccc4)cc3)nc2C#N)CC1 | active: 16.4 µM
CCC(C)Nc1nc(-c2cccc(OC)c2O)nc2ccccc12 (stereo not given) | active: 20.6 µM
Fc1cccc(Cl)c1CNC(c1ccccc1)c1ccccc1 | inconclusive: 29.1 µM [falling, single point]
Cn1c(SCC(=O)Nc2nccs2)nnc1C12CC3CC(CC(C3)C1)C2 | inconclusive: 2.31 µM [activator, full curve, poor fit]
